Laboratory results taken from patent US11872270B2, “A*03 restricted peptides for use in immunotherapy against cancers and related methods” (Immatics Biotechnologies GmbH, priority 2018, dated 2024).

The substances below were run on HLA molecules from shock-frozen tissue samples (assay: Identification and quantitation of tumor associated peptides presented on the cell surface (HLA immunoprecipitation, LC-MS)). Conditions: cancer entities on which the peptide was detected by LC-MS of HLA ligands.
Parameters: species or system human
In the case of “144 (PLAMLAATCNK; listed as Homo sapiens) [compound 144]”, the “Peptide Presentation on cancer entities” value is reported as “HCC”. For “192 (RSYSHVVLK; listed as Homo sapiens) [compound 192]”, the “Peptide Presentation on cancer entities” value was “BRCA, CRC, GBC, GBM”. For “56 (TTYYPSPLNK; listed as Homo sapiens) [compound 56]”, the “Peptide Presentation on cancer entities” value was “RCC”. For “39 (KTQFPQLK; listed as Homo sapiens) [compound 39]”, the “Peptide Presentation on cancer entities” value was “HCC”. For “7 (RLVELAGQSLLK; listed as Homo sapiens) [compound 7]”, the “Peptide Presentation on cancer entities” value was “UEC”. “202 (RLFPGLYLGY; listed as Homo sapiens) [compound 202]” was tested, and the “Peptide Presentation on cancer entities” value was “HCC”. For “168 (ATNGKVLKK; listed as Homo sapiens) [compound 168]”, the “Peptide Presentation on cancer entities” value was “GBC, HNSCC”. With “154 (TIASVLVAR; listed as Homo sapiens) [compound 154]” the “Peptide Presentation on cancer entities” value was “NHL”. “2 (KVMPKQTWK; listed as Homo sapiens) [compound 2]” was tested, and the “Peptide Presentation on cancer entities” value was “HCC”. With “176 (RLYDAYVNR; listed as Homo sapiens) [compound 176]” the “Peptide Presentation on cancer entities” value was “GBM, RCC”. In the case of “40 (ALNDRFAGY; listed as Homo sapiens) [compound 40]”, the “Peptide Presentation on cancer entities” value is reported as “PRCA”. With “19 (ALAAKLEVK; listed as Homo sapiens) [compound 19]” the “Peptide Presentation on cancer entities” value was “GBM”. For “116 (KGVKKELPQK; listed as Homo sapiens) [compound 116]”, the “Peptide Presentation on cancer entities” value was “UBC”. In the case of “46 (VVTGNVPLK; listed as Homo sapiens) [compound 46]”, the “Peptide Presentation on cancer entities” value is reported as “HCC, MEL”. For “183 (KVYIPPIINK; listed as Homo sapiens) [compound 183]”, the “Peptide Presentation on cancer entities” value was “BRCA, HCC, HNSCC, MEL, UEC”. With “147 (KLFMPRPK; listed as Homo sapiens) [compound 147]” the “Peptide Presentation on cancer entities” value was “GBC”. With “139 (KAIIRVIPLK; listed as Homo sapiens) [compound 139]” the “Peptide Presentation on cancer entities” value was “CRC”. “199 (IVFPDVISK; listed as Homo sapiens) [compound 199]” was tested, and the “Peptide Presentation on cancer entities” value was “UEC”. “1 (RVYPHKTLY; listed as Homo sapiens) [compound 1]” was tested, and the “Peptide Presentation on cancer entities” value was “HCC, UBC”. In the case of “KTWAHCMSY (listed as Homo sapiens) [SEQ ID NO: 25]”, the “Peptide Presentation on cancer entities” value is reported as “breast cancer, non-small cell lung cancer, and renal cell carcinoma”. For “190 (RSKWSNVFK; listed as Homo sapiens) [compound 190]”, the “Peptide Presentation on cancer entities” value was “CRC”. “58 (VLYRPQLEK; listed as Homo sapiens) [compound 58]” was tested, and the “Peptide Presentation on cancer entities” value was “HCC”. “226 (RVWLGKHYK; listed as Homo sapiens) [compound 226]” was tested, and the “Peptide Presentation on cancer entities” value was “BRCA, CRC, HCC, HNSCC, MEL, NSCLCother, OSCAR, SCLC, UBC, UEC”. In the case of “50 (HSAGIFSMY; listed as Homo sapiens) [compound 50]”, the “Peptide Presentation on cancer entities” value is reported as “NHL”. For “109 (KLQNLPTLLY; listed as Homo sapiens) [compound 109]”, the “Peptide Presentation on cancer entities” value was “RCC”. In the case of “161 (MKTLPAMLGTGK; listed as Homo sapiens) [compound 161]”, the “Peptide Presentation on cancer entities” value is reported as “HNSCC, NSCLCadeno, OSCAR”. In the case of “45 (KCYEVGMMK; listed as Homo sapiens) [compound 45]”, the “Peptide Presentation on cancer entities” value is reported as “UEC”. “141 (RLRDYISSLK; listed as Homo sapiens) [compound 141]” was tested, and the “Peptide Presentation on cancer entities” value was “NHL”. In the case of “197 (RIVDYLLEK; listed as Homo sapiens) [compound 197]”, the “Peptide Presentation on cancer entities” value is reported as “CCC, HNSCC”. “187 (KTCQVSGLLY; listed as Homo sapiens) [compound 187]” was tested, and the “Peptide Presentation on cancer entities” value was “BRCA, MEL”. With “175 (VIGTTSSPK; listed as Homo sapiens) [compound 175]” the “Peptide Presentation on cancer entities” value was “CCC, HCC”. “38 (SLFPYYNNLY; listed as Homo sapiens) [compound 38]” was tested, and the “Peptide Presentation on cancer entities” value was “NHL”. For “3 (LLYGNGPGYVLK; listed as Homo sapiens) [compound 3]”, the “Peptide Presentation on cancer entities” value was “UEC”. In the case of “211 (VSLGTPIMK; listed as Homo sapiens) [compound 211]”, the “Peptide Presentation on cancer entities” value is reported as “AML, GBM, HNSCC, UEC”. For “80 (ALCGTQLFY; listed as Homo sapiens) [compound 80]”, the “Peptide Presentation on cancer entities” value was “AML, CCC, HCC, NHL, NSCLCadeno, NSCLCsquam, UEC”. In the case of “88 (GTHVWVGLYK; listed as Homo sapiens) [compound 88]”, the “Peptide Presentation on cancer entities” value is reported as “PACA”. For “165 (AATIISSAK; listed as Homo sapiens) [compound 165]”, the “Peptide Presentation on cancer entities” value was “RCC”. In the case of “51 (VTADGALAMEK; listed as Homo sapiens) [compound 51]”, the “Peptide Presentation on cancer entities” value is reported as “CCC, CRC, HNSCC, UEC”. With “95 (FLGLAFHPK; listed as Homo sapiens) [compound 95]” the “Peptide Presentation on cancer entities” value was “SCLC”. In the case of “198 (FLYGAQTVY; listed as Homo sapiens) [compound 198]”, the “Peptide Presentation on cancer entities” value is reported as “CLL”. In the case of “223 (GISNPITTSK; listed as Homo sapiens) [compound 223]”, the “Peptide Presentation on cancer entities” value is reported as “HCC, HNSCC, NHL, NSCLCadeno, NSCLCother, NSCLCsquam, PRCA, RCC, UEC”. For “17 (GGLSSQGVYY; listed as Homo sapiens) [compound 17]”, the “Peptide Presentation on cancer entities” value was “CCC”. “92 (KRIPFRPLAK; listed as Homo sapiens) [compound 92]” was tested, and the “Peptide Presentation on cancer entities” value was “HCC”. With “169 (ATNGKVLKKR; listed as Homo sapiens) [compound 169]” the “Peptide Presentation on cancer entities” value was “CLL, GBM, HNSCC, UEC”. “195 (KLQAKVLQY; listed as Homo sapiens) [compound 195]” was tested, and the “Peptide Presentation on cancer entities” value was “GBC, MEL”. For “18 (RLYYSFKNITK; listed as Homo sapiens) [compound 18]”, the “Peptide Presentation on cancer entities” value was “NHL”. For “217 (RVYEGDGRNSLK; listed as Homo sapiens) [compound 217]”, the “Peptide Presentation on cancer entities” value was “NHL”. With “218 (KAFNQSSIFTK; listed as Homo sapiens) [compound 218]” the “Peptide Presentation on cancer entities” value was “CCC, NHL, NSCLCadeno”. In the case of “36 (QIRAELMKK; listed as Homo sapiens) [compound 36]”, the “Peptide Presentation on cancer entities” value is reported as “HNSCC, NHL”. In the case of “207 (ATLNLFQIVSK; listed as Homo sapiens) [compound 207]”, the “Peptide Presentation on cancer entities” value is reported as “AML”. With “103 (SIYKKAVYR; listed as Homo sapiens) [compound 103]” the “Peptide Presentation on cancer entities” value was “CRC”. In the case of “101 (HMDEFKRTQK; listed as Homo sapiens) [compound 101]”, the “Peptide Presentation on cancer entities” value is reported as “CRC”. For “106 (LLRSGLTLR; listed as Homo sapiens) [compound 106]”, the “Peptide Presentation on cancer entities” value was “HCC, UEC”. In the case of “159 (LLLLPFLLY; listed as Homo sapiens) [compound 159]”, the “Peptide Presentation on cancer entities” value is reported as “CCC”. For “162 (LLALGAAYVY; listed as Homo sapiens) [compound 162]”, the “Peptide Presentation on cancer entities” value was “UEC”. For “9 (HVLYPVPLESY; listed as Homo sapiens) [compound 9]”, the “Peptide Presentation on cancer entities” value was “MEL”. In the case of “142 (SPRVYWLGLNDR; listed as Homo sapiens) [compound 142]”, the “Peptide Presentation on cancer entities” value is reported as “NHL”. In the case of “172 (SLLEADPFLK; listed as Homo sapiens) [compound 172]”, the “Peptide Presentation on cancer entities” value is reported as “AML”. With “55 (RLSAESKDLLK; listed as Homo sapiens) [compound 55]” the “Peptide Presentation on cancer entities” value was “GBM”. For “63 (SSFRPLLSK; listed as Homo sapiens) [compound 63]”, the “Peptide Presentation on cancer entities” value was “BRCA, CRC, GBM, HCC, MEL, PACA, PRCA, SCLC, UEC”. “158 (RALGVPFVPR; listed as Homo sapiens) [compound 158]” was tested, and the “Peptide Presentation on cancer entities” value was “CCC”. “181 (RVAEEILIK; listed as Homo sapiens) [compound 181]” was tested, and the “Peptide Presentation on cancer entities” value was “MEL”. With “22 (EGLFLLGCVK; listed as Homo sapiens) [compound 22]” the “Peptide Presentation on cancer entities” value was “NHL”. For “90 (RTALLWGLKK; listed as Homo sapiens) [compound 90]”, the “Peptide Presentation on cancer entities” value was “HNSCC”. For “67 (VVREILHAQTLK; listed as Homo sapiens) [compound 67]”, the “Peptide Presentation on cancer entities” value was “MEL, NHL”. “14 (VAFFVLPSK; listed as Homo sapiens) [compound 14]” was tested, and the “Peptide Presentation on cancer entities” value was “AML”. In the case of “179 (KINPTASLK; listed as Homo sapiens) [compound 179]”, the “Peptide Presentation on cancer entities” value is reported as “MEL”. For “143 (KTLGKIAEK; listed as Homo sapiens) [compound 143]”, the “Peptide Presentation on cancer entities” value was “CCC, CRC, GBC, HNSCC, NSCLCadeno, NSCLCother, NSCLCsquam, OSCAR, PRCA”. “75 (IIFVPEMNK; listed as Homo sapiens) [compound 75]” was tested, and the “Peptide Presentation on cancer entities” value was “UEC”. “177 (ALLGVIIAKK; listed as Homo sapiens) [compound 177]” was tested, and the “Peptide Presentation on cancer entities” value was “RCC”. With “57 (RVLYRPQLEK; listed as Homo sapiens) [compound 57]” the “Peptide Presentation on cancer entities” value was “HCC”. With “127 (GLAAGALLLY; listed as Homo sapiens) [compound 127]” the “Peptide Presentation on cancer entities” value was “NSCLCsquam”.

Same assay, conditions: cancer entities on which the peptide was found presented (Table 8b)
With “263 (RTYQLYSR; listed as Homo sapiens) [compound 263]” the “Peptide Presentation on cancer entities” value was “CCC, MEL, OC, PRCA, UEC”. “256 (AVIGALLAVGATK; listed as Homo sapiens) [compound 256]” was tested, and the “Peptide Presentation on cancer entities” value was “MEL”. In the case of “261 (AVAQKLLSH; listed as Homo sapiens) [compound 261]”, the “Peptide Presentation on cancer entities” value is reported as “HCC, NHL, OC, UEC”. “265 (KIYEFRLMM; listed as Homo sapiens) [compound 265]” was tested, and the “Peptide Presentation on cancer entities” value was “HNSCC, OC, PACA”. For “257 (LAELEGALQK; listed as Homo sapiens) [compound 257]”, the “Peptide Presentation on cancer entities” value was “BRCA, CCC”. For “255 (VRTLPFLIK; listed as Homo sapiens) [compound 255]”, the “Peptide Presentation on cancer entities” value was “GBC, HCC”. With “254 (SVLDKLLFH; listed as Homo sapiens) [compound 254]” the “Peptide Presentation on cancer entities” value was “NHL, RCC”.
